PubChem BioAssay AID652243, Drosophila RNAi Screening Center, 2013

- Aim: 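Fly genes required for human androgen receptor driven transcription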 (primary screen)
- Cell system: Drosophila S2R+ cells
- Reagents: long dsRNA against Drosophila genes
- Duration: 72 h (48 h, then 24 h hormone)
- Challenge: synthetic androgen R1881 at 10 nM for 24 h
- Detection: 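Firefly light from an androgen-responsive reporter and Renilla control light per well, raw and unnormalised, for each of two replicates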
- Direction: firefly reporter light: higher = more light from androgen-responsive reporter; Renilla control light: higher = more constitutive control signal (cell number, transfection)
- Active means: 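Hit when the log firefly-to-Renilla ratio dropped or increased by a fixed fold versus the mean of GFP or LacZ controls across duplicate plates; lowering cut given as 1.5 and as 3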
- Meaning of the calls: active = hit: reporter lowered or raised; inactive = no hit
The screen tested about 24,000 reagents; below is an unselected part of those with a known target gene and a result. In the full data, 246 (1%) are marked active. 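Plates not normalised; calls are printed but the firefly/Renilla ratio behind them is not deposited; fold cut for lowering reported inconsistently.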 The raw values are shown without normalisation. A plus sign joins genes that one reagent is predicted to hit. Not stated in the record: the amount of reagent.

target,amplicon,"firefly reporter light, replicate 1","firefly reporter light, replicate 2","Renilla control light, replicate 1","Renilla control light, replicate 2",Call
Flad2,DRSC02531,2.35e5,3.15e5,2.23e6,2.17e6,inactive
Flad2,DRSC27627,4.03e5,3.03e5,5.22e5,5.17e5,inactive
Mekk1,DRSC16302,66671,1.07e5,6.28e5,6.14e5,inactive
Mekk1,DRSC16303,2.15e5,2.59e5,3.06e6,3.02e6,inactive
Mekk1,DRSC36752,,,,,inactive
Mekk1,DRSC36753,,,,,inactive
CG31759,DRSC01230,1.06e5,1.95e5,3.25e5,5.24e5,inactive
Ostgamma,DRSC03074,6.90e5,8.02e5,1.24e6,1.13e6,inactive
Gr22d,DRSC21653,5.95e5,5.27e5,3.03e6,2.15e6,inactive
Gr22d,DRSC25985,3.71e5,4.19e5,1.18e6,9.03e5,inactive
CG14710,DRSC14933,33975,58056,2.83e5,4.93e5,inactive
CG13615,DRSC14618,1.52e5,1.93e5,2.41e6,2.80e6,inactive
CG13615,DRSC24018,1.35e6,9.52e5,1.49e6,1.09e6,inactive
corn,DRSC11021,1.29e6,4.96e5,1.99e6,9.22e5,inactive
corn,DRSC21943,5.25e5,6.23e5,1.57e6,1.57e6,inactive
corn,DRSC27306,6.15e5,5.27e5,6.82e5,7.27e5,inactive
CG2991,DRSC00559,7.30e5,6.72e5,1.32e6,1.04e6,inactive
CG2991,DRSC26300,2.27e5,2.80e5,6.08e5,6.14e5,inactive
amx,DRSC23466,7.54e5,9.43e5,8.33e5,9.66e5,inactive
sip2,DRSC03154,77259,72041,1.16e6,1.00e6,inactive
CG34230,DRSC38877,7.22e5,7.20e5,1.81e6,1.64e6,inactive
Tsf2,DRSC09751,1.06e6,7.58e5,1.11e6,1.13e6,inactive
CG34029,DRSC38893,1.00e6,7.51e5,2.41e6,2.04e6,inactive
CG33641,DRSC37845,6.67e5,8.79e5,1.89e6,1.97e6,inactive
Recs1,DRSC16545,1.94e5,1.99e5,2.73e6,2.42e6,inactive
Ype,DRSC20301,81481,1.23e5,7.54e5,8.60e5,inactive
mnd,DRSC11370,1.48e5,1.93e5,1.65e6,1.34e6,inactive
CG32590,DRSC19594,4.56e5,5.40e5,2.82e6,3.01e6,inactive
aspr,DRSC20689,2.67e5,2.11e5,6.24e5,5.34e5,inactive
aspr,DRSC20690,1.32e5,1.16e5,4.40e5,4.11e5,inactive
Fkbp14,DRSC04615,7.12e5,7.29e5,2.43e6,2.32e6,inactive
Mccc1,DRSC15417,1.16e5,1.06e5,1.02e6,8.06e5,inactive
Mccc1,DRSC27491,3.40e5,2.76e5,5.09e5,3.82e5,inactive
htt,DRSC16970,1.73e5,1.59e5,1.62e6,1.69e6,inactive
CG34163,DRSC38917,9.56e5,8.02e5,1.87e6,1.25e6,inactive
CG30480,DRSC06736,37840,78984,1.13e6,1.13e6,inactive
CG30480,DRSC28831,4.64e5,4.62e5,1.36e6,1.50e6,inactive
CG6380,DRSC02950,1.68e5,1.37e5,1.85e6,1.53e6,inactive
CG6380,DRSC36843,,,,,inactive
Mocs2A + CR42201 + Mocs2B,DRSC38759,9.29e5,9.07e5,1.82e6,2.05e6,inactive
His3.3B,DRSC17773,3.66e5,3.57e5,1.76e6,1.90e6,inactive
His3.3B,DRSC18673,4.17e5,4.92e5,1.14e5,1.54e5,inactive
His3.3B,DRSC28380,6.15e5,8.70e5,8.61e5,1.20e6,inactive
His3.3B,DRSC28708,6.52e5,7.82e5,1.44e6,1.50e6,inactive
CG2861,DRSC18229,2.77e5,4.47e5,3.11e6,2.87e6,inactive
CG30485,DRSC06376,92466,64163,2.04e6,2.04e6,inactive
CG15239,DRSC17972,2.94e5,3.29e5,3.49e6,2.91e6,inactive
CG15239,DRSC25155,9.81e5,8.39e5,1.52e6,1.29e6,inactive
CG8243,DRSC07122,4.73e5,3.01e5,2.97e6,1.91e6,inactive
CG8243,DRSC23414,5.08e5,8.72e5,6.84e5,1.18e6,inactive
wisp,DRSC23092,6.24e5,8.00e5,1.17e6,1.34e6,inactive
wisp,DRSC25917,3.65e5,2.77e5,7.89e5,6.44e5,inactive
Grl58a,DRSC04145,2.31e5,2.03e5,1.97e6,1.35e6,inactive
CG15484,DRSC02494,3.61e5,3.36e5,3.12e6,3.06e6,inactive
CG15484,DRSC22836,4.42e5,8.48e5,1.31e6,2.34e6,inactive
SkpC,DRSC20375,3.74e5,2.92e5,1.18e6,3.82e5,inactive
SkpC,DRSC26926,6.87e5,5.02e5,1.03e6,4.84e5,inactive
DIP-epsilon,DRSC00932,7.92e5,1.07e6,2.26e6,2.32e6,inactive
DIP-epsilon,DRSC02313,3.32e5,3.34e5,2.04e6,1.65e6,inactive
DIP-epsilon,DRSC26835,4.62e5,3.22e5,1.09e6,7.97e5,inactive
CG15880,DRSC00474,1.42e5,1.25e5,9.22e5,9.78e5,inactive
CG10462,DRSC02058,9.70e5,7.46e5,1.01e6,9.11e5,inactive
CG12170,DRSC12199,4.19e5,3.32e5,3.70e6,3.03e6,inactive
Phae2,DRSC02555,2.35e5,2.77e5,1.97e6,2.27e6,inactive
lin,DRSC07644,3.92e5,3.60e5,2.42e6,1.93e6,inactive
lin,DRSC28074,2.79e5,2.80e5,6.88e5,7.75e5,inactive
CG42822,DRSC38816,1.14e6,1.07e6,1.94e6,2.03e6,inactive
Rbp6,DRSC10072,2.38e5,2.31e5,2.23e6,2.30e6,inactive
Rbp6,DRSC10073,4.09e5,4.22e5,3.26e6,3.29e6,inactive
Rbp6,DRSC36532,7.94e5,7.87e5,1.61e6,1.56e6,inactive
Rbp6,DRSC36533,8.95e5,7.77e5,1.75e6,1.75e6,inactive
CG31106,DRSC14655,1.21e5,1.59e5,2.13e6,1.70e6,inactive
CG34286,DRSC21790,6.12e5,4.92e5,2.47e6,2.66e6,inactive
CG6621,DRSC16076,36623,59865,2.65e5,3.86e5,inactive
CG6621,DRSC26979,3.61e5,3.33e5,1.01e6,1.09e6,active

Reagents listed so far called active, once more:
target,amplicon,"firefly reporter light, replicate 1","firefly reporter light, replicate 2","Renilla control light, replicate 1","Renilla control light, replicate 2",Call
CG6621,DRSC26979,3.61e5,3.33e5,1.01e6,1.09e6,active
